Publication PMC9051119 (RSC Advances, 2020)

How the values were obtained:
[1] = single excipient, result in words
[2] = Equilibrium solubility in model lipid-based formulations; conditions: value of the main text; for Solubility in MC-SEDDS: medium chain SEDDS

SMILES	Equilibrium solubility in glyceryl tricaprylate/caprate [1]	Solubility in LC-SEDDS ([2]; long chain SEDDS) [mg/g]	Solubility in MC-SEDDS [2] [mg/g]
C(=C\c1ccccc1)/CN1CCN(C(c2ccccc2)c2ccccc2)CC1 [Compound 1a, cinnarizine]	practically insoluble	–	–
C(=C\c1ccccc1)/CN1CCN(C(c2ccccc2)c2ccccc2)CC1 [Compound 1, cinnarizine]	high solubility	–	–
C(=C\c1ccccc1)/CN1CCN(C(c2ccccc2)c2ccccc2)CC1 [Compound 1k, cinnarizine]	–	249	261
C(=C\c1ccccc1)/CN1CCN(C(c2ccccc2)c2ccccc2)CC1 [Compound 1g, cinnarizine]	–	–	99
